Screening data

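Viability curves with and without a cytotoxic drug are compared in MRP-overexpressing cells, giving a slope gap; the cell line is not named here.
The test concentration is not given here.
The number is the slope of the toxicity curve minus the slope of the reversal curve, with no unit; a higher value means a more active compound.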

Common to all entries: measured here: slope difference tox minus reversal.
Part of the compounds only, not a random draw; the main read-out is not listed here.

structure	slope difference
CCOC(=O)c1cc(C)sc1NC(=O)C1CCC1	0.2635
CCOC(=O)c1ccccc1NC(=O)c1cccs1	0.5038
CCC(C)Nc1nc2c(c(=O)n(C)c(=O)n2C)n1Cc1cccc(C)c1 (stereo unspecified)	0.7709
CCOC(=O)c1cnc2ccc(OCC)cc2c1N1CCN(c2ccccc2)CC1	2.371
CN1CCN(c2nc(-c3cccnc3)nc3ccccc23)CC1	1.359
CCCC(=O)n1nc(-c2ccc(OC)cc2)nc1N	0.5009
Cc1cccc(Nc2ccccc2C(=O)O)c1C	1.16
Brc1ccc(-c2nc3ncccn3c2NC2CCCCC2)o1	2.136
CCOC(=O)N1CCC(Nc2c(Nc3ccc(F)cc3)c(=O)c2=O)CC1	0.7477
CN1CCN(c2nc(-c3ccccn3)nc3ccccc23)CC1	0.694
COc1ccc(C2c3c(-c4ccccc4O)n[nH]c3C(=O)N2CCc2ccc(OC)c(OC)c2)cc1 (stereo unspecified)	1.496
Cn1c(=O)c2c(nc(CN3CCN(c4ccc(F)cc4)CC3)n2Cc2ccccc2F)n(C)c1=O	0.61
CCOC(=O)c1c(NC(=O)OC)sc(C(=O)N(CC)CC)c1C	1.266
O=C(C1CCC1)N1CCC(c2nc3c(nnn3Cc3c(F)cccc3Cl)c(=O)[nH]2)CC1	1.597
Cc1ccc(N=C(NOCc2ccc(Cl)cc2Cl)c2nonc2N)c(C)c1	0.596
CCc1nnc(NC(=O)CSc2nnc(-c3cc4ccccc4cc3O)n2CC)s1	0.1104
COc1cc(C)nc(-n2nc(C)cc2OC)n1	0.2506
CCCCCCN1C=CC(=C/C=C(\C#N)C(=O)OCC)C=C1	1.175
O=C(c1ccc(S(=O)(=O)N2CCCC2)cc1)N1CCN(Cc2ccc3c(c2)OCO3)CC1	1.623
CCCCn1c(N2CCC(Cc3ccccc3)CC2)nc2c1c(=O)[nH]c(=O)n2C	0.6034
Cn1c(=O)c2c(nc(N3CCN(Cc4ccccc4)CC3)n2CCCc2ccccc2)n(C)c1=O	1.125
CCCc1nnc(SCc2ccc(C(=O)OC)o2)n1N	2.048
COCCCNC(=O)CCn1c(=O)c2ccccc2n(CC(=O)Nc2ccc(C)cc2C)c1=O	0.9612
CCOC(=O)c1c(NC(=O)CSc2nnc(-c3ccccc3)n2CC)sc(C(C)=O)c1C	1.636
CCOC(=O)C1CCCN(c2c(Nc3ccc(C)c(C)c3)c(=O)c2=O)C1 (stereo unspecified)	0.6594
CCOC(=O)N1CCN(C(=O)CSc2nc3c(c(=O)n2-c2ccccc2OC)SCC3)CC1	1.126
COc1ccc(CC(=O)N2CCN(c3ccccn3)CC2)cc1OC	0.9329
COc1ccc(NC(=O)CN2CCN(C3c4ccccc4-c4ccccc43)CC2)c(OC)c1	1.195
CCOC(=O)C1=C(C)NC2=C(C(=O)C(C(=O)OCC)C(c3ccco3)C2)C1c1ccccn1 (stereo unspecified)	0.8596
COc1ccc(S(=O)(=O)Cc2ccc(C(=O)N3CCN(C4CCCCC4)CC3)o2)cc1	0.794
Cc1ccc(Cn2nnc3c(=O)[nH]c(C4CCN(S(=O)(=O)c5ccc(F)cc5)CC4)nc32)cc1	0.11
Cc1cc(/C=C(/C#N)c2cccc(F)c2)c(C)n1-c1cccnc1	1.266
CCC(=O)N1CCN(c2ccccc2NC(=O)c2cccc(C)c2)CC1	1.189
O=C(NC1CC1)C1CCN(c2ccc(S(=O)(=O)N3CCOCC3)cc2)CC1	0.4111
CCOC(=O)c1cc(CC)sc1NC(=O)Cc1ccccc1	0.479
CN1CCN(c2nc(-c3ccncc3)nc3ccccc23)CC1	0.7562
CCCCc1c(C)c(C#N)c2nc3ccccc3n2c1Nc1c(C)n(C)n(-c2ccccc2)c1=O	2.077
O=C(Nc1ccc2nn(-c3ccccc3)nc2c1)c1ccc2c(c1)OCO2	0.314
CC(C)CC1NC2(C(=O)N(C)c3ccccc32)C2C(=O)N(C(C)C)C(=O)C12 (stereo unspecified)	0.3438
O=C(CSc1nc2c(c(=O)n1-c1ccccc1)SCC2)N1CCN(c2ccccc2)CC1	2.049
COC(=O)c1[nH]c2cccc(OC)c2c1NC(=O)CCN1CCN(c2cccc(Cl)c2)CC1	0.5849
CCOC(=O)C1(c2ccccc2)NC(c2ccccc2C)C2C(=O)N(c3ccc4c(c3)OCO4)C(=O)C21 (stereo unspecified)	1.973
C=CCn1c(SCC(=O)c2cc(C)n(C(C)COC)c2C)nc2sc(C)c(C)c2c1=O (stereo unspecified)	1.175
Cc1cccc(Cn2c(NCCO)nc3c2c(=O)n(C)c(=O)n3C)c1	0.6916
N#Cc1ccc(-n2c(-c3ccccc3)nnc2-c2ccccc2)cc1C#N	0.6008
O=c1c2c3nc4ccccc4nc3n(CC3CCCO3)c2ncn1CCc1ccccc1 (stereo unspecified)	0.4266
Cn1c(=O)[nH]c(=O)c2c1nc(CN1CCOCC1)n2CCc1ccccc1	1.06
C=CCNc1nc2c(c(=O)n(C)c(=O)n2C)n1Cc1ccc(F)cc1	0.441
Cn1c(=O)c2c(nc(-n3ccnc3)n2Cc2ccccc2)n(C)c1=O	0.8365
Cc1cc(C)n(CC(O)CN2C(=O)NC(C)(C)C2=O)n1 (stereo unspecified)	0.6995
Oc1ccc(/C=C/c2cc(O)cc(O)c2)cc1	0.3502
Cc1ccc(CNc2cc(-c3nn4c(C)nnc4s3)ccc2C)s1	1.272
Cc1ccc(S(=O)(=O)Cc2ccc(C(=O)N3CCN(Cc4ccccc4)CC3)o2)cc1	0.4152
CC1(C)Cc2c(sc3c2C2=NCCN2C=N3)CO1	0.2004
COc1ccc2c(c1)c(CC(=O)O)c(C)n2C(=O)c1ccc(Cl)cc1	0.8565
CCN(CC)CCCN=Cc1c(O)n(Cc2ccc(F)cc2)c(=O)[nH]c1=O	0.2775
Cc1ccc(C2C3CN(C(C)C)CC=C3C(C#N)=C(N)C2(C#N)C#N)cc1 (stereo unspecified)	1.896
Cn1c(=O)[nH]c(=O)c2c1nc(N1CCCCCC1)n2Cc1cccc2ccccc12	0.8475
COC(=O)C1=COC(C)C2CN3CCc4c([nH]c5ccccc45)C3CC12 (stereo unspecified)	0.7273
CCN(CCCNC(=O)c1cn(CC)c2ccc(S(=O)(=O)N(C)C)cc2c1=O)c1cccc(C)c1	1.591
CC(C)(C)C1CC=C2C(C#N)=C(N)C(C#N)(C#N)C(c3cccs3)C2C1 (stereo unspecified)	2.133
C=CCn1c(=O)c2ccccc2n2c(SCc3nnc(-c4ccccc4Br)o3)nnc12	1.016
O=C(NCc1cccnc1)c1cn(CCc2ccccc2)nn1	0.9529
COC(=O)c1ccccc1NC(=O)CN1CCN(C(=O)c2ccco2)CC1	1.489
COc1ccc2c(Cl)c(C(=O)NCCCn3ccnc3)sc2c1	1.55
Cc1ccc2oc(=O)c3cnn(CC(=O)N4CCCCC4C)c3c2c1 (stereo unspecified)	1.228
Cc1cnc(NC(=O)C2=C(O)c3ccccc3S(=O)(=O)N2C)s1	0.4256
O=C(O)CCC(=O)c1ccc(-c2ccccc2)cc1	1.491
CC1(C)CC(=O)C2=C(C1)OC(c1ccncc1)C(C#N)=C2N (stereo unspecified)	0.5546
C=CCSc1nnc2n(-c3ccccc3OC)c(=O)c3c4c(sc3n12)CCC4	1.048
O=C1C=C(c2ccccc2)C[C@H](c2cccs2)[C@H]1n1cnc([N+](=O)[O-])c1	1.204

Once more, the final 4:

With O=C(O)CCC(=O)c1ccc(-c2ccccc2)cc1 the assay gave slope difference 1.491.
With CC1(C)CC(=O)C2=C(C1)OC(c1ccncc1)C(C#N)=C2N (stereo unspecified) the assay gave slope difference 0.5546.
With C=CCSc1nnc2n(-c3ccccc3OC)c(=O)c3c4c(sc3n12)CCC4 the assay gave slope difference 1.048.
With O=C1C=C(c2ccccc2)C[C@H](c2cccs2)[C@H]1n1cnc([N+](=O)[O-])c1 the assay gave slope difference 1.204.

From PubChem BioAssay record AID741 (SRMLSC, 2007).